# In article PMC7563477, “N-Terminal Segment of TvCyP2 Cyclophilin from Trichomonas vaginalis Is Involved in Self-Association, Membrane Interaction, and Subcellular Localization” (Biomolecules, 2020):
# Protein sequences, listed by entry. Tags and fused reporters are not part of them.
# UniProt A2DLL4: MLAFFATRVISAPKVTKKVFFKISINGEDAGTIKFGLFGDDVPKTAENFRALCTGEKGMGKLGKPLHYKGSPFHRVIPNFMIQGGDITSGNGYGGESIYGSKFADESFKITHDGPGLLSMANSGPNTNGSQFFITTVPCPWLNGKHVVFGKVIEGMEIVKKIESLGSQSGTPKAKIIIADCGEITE
# UniProt A2DT06: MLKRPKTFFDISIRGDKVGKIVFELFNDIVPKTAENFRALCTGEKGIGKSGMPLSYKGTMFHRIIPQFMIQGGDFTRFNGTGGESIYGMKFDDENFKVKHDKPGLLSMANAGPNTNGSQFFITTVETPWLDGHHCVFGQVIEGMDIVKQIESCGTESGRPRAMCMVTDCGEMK
# No constants are given. Whether binding was seen depends on the method and setting. Binding seen in cells or lysates may run through a third protein. Some results given as binding are weak or reduced against the parent protein; the word gives no strength.
# Biological target: HA-TvCyP2 (hemagglutinin-tagged TvCyP2 overexpressed in T. vaginalis) (Trichomonas vaginalis) (UniProt A2DLL4)
# Assay: co-IP; lysates of transgenic T. vaginalis T1 cells (1% Triton X-100 in PBS, diluted 5-fold) on anti-HA agarose beads, 4 °C overnight; washed with PBS with 0.1% Triton X-100; Western blot; non-transgenic parasites as control
substance,measurement,value
"TvCyP1, endogenous in T. vaginalis (from UniProt A2DT06 1-173) (enzyme)",binding,binds
